Source: PubChem BioAssay AID504793 (Drosophila RNAi Screening Center, 2011)
In all, the deposit lists about 23,000 reagents; below is an unselected part of those with a known target gene and a result. Of all reagents, 62 (0.27%) are marked active. 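Calls come from follow-up tests whose scores are not deposited, so confirmed genes may have low counts here; counts are not normalised per plate.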 The raw values are shown without normalisation. A plus sign joins genes that one reagent is predicted to hit.

Assay: 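Whole-genome screen for parts of the DNA damage checkpoint at G2/M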 (primary screen)
System: Drosophila S2R+ cells
Reagent: long dsRNA against Drosophila genes, about 0.25 µg dsRNA per well
Time to read-out: 4 days of dsRNA, then 4 hours of drug before read-out
Treatment: doxorubicin 0.5 µM for 4 hours to cause double-strand breaks, in cells also given a low, harmless dose of dsRNA against nbs to sensitise the assay
Measurement: 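Mitotic index as the number of phospho-histone H3-positive cells in each well following doxorubicin, given as raw counts without normalisation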
Scale: mitotic cells: higher = more cells in mitosis, weaker G2 arrest
Hit rule: 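a call needs confirmation in secondary tests, with other dsRNAs and a check of mitotic timing without damage, not just a high primary count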
Meaning of the calls: active = confirmed in follow-up tests; inactive = not confirmed

gene	amplicon	mitotic cells, replicate 1	mitotic cells, replicate 2	Outcome
stil	DRSC07699	6		inactive
CG11095	DRSC19375	11		inactive
CG11095	DRSC26123	3		inactive
CG12546	DRSC11676			inactive
CG15579	DRSC18067	15		inactive
CG3655	DRSC18181	5		inactive
CG3655	DRSC18477	6		inactive
CG3655	DRSC22688	7		inactive
tfc	DRSC07953	12		inactive
tfc	DRSC07954	10		inactive
tfc	DRSC08626	7		inactive
tfc	DRSC21704	6		inactive
tfc	DRSC23750	5		inactive
deltaCOP	DRSC18760	8		inactive
deltaCOP	DRSC25961	3		inactive
CG13995	DRSC00907	7	24	inactive
CG13995	DRSC02327	5		inactive
CG13995	DRSC22767	11		inactive
CG13995	DRSC28023	3		inactive
CG14718	DRSC14941	7		inactive
stj	DRSC06124	7		inactive
Ssk	DRSC10756	7		inactive
CG8785	DRSC07266	4		inactive
SCOT	DRSC08186	5		inactive
SCOT	DRSC26521	6		inactive
Atg12	DRSC09803	8		inactive
bigmax	DRSC15481	7		inactive
bigmax	DRSC27542	10		inactive
CG4598	DRSC02763	6		inactive
Lamtor5	DRSC18491	17		inactive
mthl9	DRSC08506	4		inactive
Mettl14	DRSC03073	6		inactive
Upf3	DRSC04092	8		inactive
Upf3	DRSC27316	6		inactive
DCX-EMAP	DRSC10012	8		inactive
DCX-EMAP	DRSC10013	3		inactive
DCX-EMAP	DRSC23492	5		inactive
EndoU + CR31292	DRSC26161	13		inactive
CG31913	DRSC00892	1		inactive
CG31913	DRSC27532	5		inactive
Cyp318a1	DRSC19784	19		inactive
CG9953	DRSC11106	5		inactive
CG7407	DRSC11824	7		inactive
Tpc1	DRSC15614	4		inactive
Tpc1	DRSC16074	6		inactive
Tpc1	DRSC29490	5		inactive
schuy	DRSC10284	6		inactive
schuy	DRSC28184	7		inactive
Cog7	DRSC16331	7		inactive
CG15145	DRSC02446	2		inactive
CG15145	DRSC26674	3		inactive
AP-2sigma	DRSC15957	8		inactive
Atxn7	DRSC23138	8		inactive
CG15353	DRSC00383	2		inactive
CG15353	DRSC24727	2		inactive
Wnt2	DRSC05160	9		inactive
Wnt2	DRSC07574	3		inactive
Taf7	DRSC15445	4		inactive
Taf7	DRSC26720	7		inactive
CG31233	DRSC15888	5		inactive
ZnT49B	DRSC07225	3		inactive
spab	DRSC07112	9		inactive
CG7140	DRSC11799	3		inactive
lncRNA:CR42491 + RpL22	DRSC25025	1		inactive
Klp59D	DRSC04118	3		inactive
Klp59D	DRSC24436	3		inactive
sip2	DRSC03154	2		inactive
Hmx	DRSC24958	7		inactive
Hmx	DRSC25028	9		inactive
Ir60b	DRSC04217	6		inactive
Trmt6	DRSC03272	8		inactive
Cpr35B	DRSC01949	14		inactive
Cpr35B	DRSC22797	4		inactive
Cpr35B	DRSC26431	7		inactive
CG14341	DRSC00371	2		inactive
